The record followed here is patent US20140199316A1 (published 2014).

Amino acid sequences for entries named in this document (tags omitted). A change or cut given only in a name is not applied to a line headed by its entry. Chains listed by the source or under a name are the forms on record and can include a tag or linker.
Hematopoietic Cell E-/L-selectin Ligand (HCELL), glycoform of CD44, from ML lysates (P16070, form named): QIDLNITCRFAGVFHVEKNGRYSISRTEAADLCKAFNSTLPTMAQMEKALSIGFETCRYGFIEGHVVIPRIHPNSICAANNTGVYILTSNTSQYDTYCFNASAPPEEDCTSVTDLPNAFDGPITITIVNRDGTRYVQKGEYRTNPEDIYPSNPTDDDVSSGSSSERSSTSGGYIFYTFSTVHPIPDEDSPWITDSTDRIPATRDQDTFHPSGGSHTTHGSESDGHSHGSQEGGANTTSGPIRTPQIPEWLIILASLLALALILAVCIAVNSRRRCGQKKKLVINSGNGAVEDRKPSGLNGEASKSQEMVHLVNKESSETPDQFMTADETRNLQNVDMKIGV

Results are given in words; binding and its absence hold for the method and conditions named. Some binding calls cover weakened binding; strength is not graded here. Where a sequence is shown, tags or fusion partners need not be part of it.

The target of this assay is Hematopoietic Cell E-/L-selectin Ligand (HCELL), glycoform of CD44, from ML lysates (human) (UniProt P16070). Nature of the assay: western blot of ML lysates and WGA-purified glycoproteins, reducing SDS-PAGE.

B1: recombinant mouse E-selectin-human Fc chimera (Fc fusion, UniProt Q00690 22-557, looked up, not shown: a dimerising Fc or GST)
chain: WYYNASSELMTYDEASAYCQRDYTHLVAIQNKEEINYLNSNLKHSPSYYWIGIRKVNNVWIWVGTGKPLTEEAQNWAPGEPNNKQRNEDCVEIYIQRTKDSGMWNDERCNKKKLALCYTASCTNASCSGHGECIETINSYTCKCHPGFLGPNCEQAVTCKPQEHPDYGSLNCSHPFGPFSYNSSCSFGCKRGYLPSSMETTVRCTSSGEWSAPAPACHVVECEALTHPAHGIRKCSSNPGSYPWNTTCTFDCVEGYRRVGAQNLQCTSSGIWDNETPSCKAVTCDAIPQPQNGFVSCSHSTAGELAFKSSCNFTCEQSFTLQGPAQVECSAQGQWTPQIPVCKAVQCEALSAPQQGNMKCLPSASGPFQNGSSCEFSCEEGFELKGSRRLQCGPRGEWDSKKPTCSAVKCDDVPRPQNGVMECAHATTGEFTYKSSCAFQCNEGFSLHGSAQLECTSQGKWTQEVPSCQVVQCPSLDVPGKMNMSCSGTAVFGTVCEFTCPDDWTLNGSAVLTCGATGRWSGMPPTCEAPVSPTRP
For the molecule B1, the binding entry is recorded as “binds”.
